Results: article PMC6925134

Experiments:
Assay in all cases: co-IP; RNF208 with head, rod and tail domains of Vimentin (Supplementary Fig. 7c); cells and antibodies not told
[1] = target: head domain of Vimentin (human)
[2] = target: tail domain of Vimentin (human)
[3] = target: rod domain of Vimentin (human)

binding [1]: binds | binding [2]: no binding | binding [3]: no binding
B1: RNF208 (as used in the mapping of the Vimentin domains) (protein, UniProt Q9H0X6 1-261)
chain: MPSDPGPEAGSGWPGLLMSCLKGPHVILKMEAMKIVHPEKFPELPAAPCFPPAPRPTPTLAPKRAWPSDTEIIVNQACGGDMPALEGAPHTPPLPRRPRKGSSELGFPRVAPEDEVIVNQYVIRPGPSASAASSAAAGEPLECPTCGHSYNVTQRRPRVLSCLHSVCEQCLQILYESCPKYKFISCPTCRRETVLFTDYGLAALAVNTSILSRLPPEALTAPSGGQWGAEPEGSCYQTFRQYCGAACTCHVRNPLSACSIM

These are yes or no findings as the source states them, for the method shown. Binding seen in cells or lysates may run through a third protein. For part of these data: A result given as binding can be weak or reduced; the word gives no strength.
